Results on two molecules are retold here after US20250034601A1, “HETERODIMERIC BENZALDEHYDE SYNTHASE, METHODS OF PRODUCING, AND USES THEREOF” (Purdue Research Foundation, priority 2021, published 2025).

No constants are given. Whether binding was seen depends on the method and setting. In cells and extracts the contact can be indirect. Some binding calls cover weakened binding; strength is not graded here. Tags and fused reporters may be left off the sequences shown.

Experiment [1] addresses T1, PhBSβ-His (C-terminal His-tagged beta subunit of Petunia hybrida benzaldehyde synthase) (Petunia hybrida).
T1 sequence: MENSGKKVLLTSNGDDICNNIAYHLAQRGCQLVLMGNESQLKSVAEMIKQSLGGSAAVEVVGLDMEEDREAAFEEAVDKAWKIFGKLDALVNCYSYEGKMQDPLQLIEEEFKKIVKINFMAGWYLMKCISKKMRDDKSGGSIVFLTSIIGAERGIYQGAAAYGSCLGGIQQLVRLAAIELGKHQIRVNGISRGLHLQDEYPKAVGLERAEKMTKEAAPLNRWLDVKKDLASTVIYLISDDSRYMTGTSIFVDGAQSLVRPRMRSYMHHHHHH
Description: pull-down on Ni-NTA agarose after Factor Xa digestion of MBP-PhBSα, SDS-PAGE and BS activity.

Experiment [2] has as its target T2, MBP-PhBSα (maltose binding protein-tagged alpha subunit of Petunia hybrida benzaldehyde synthase) (Petunia hybrida).
T2 sequence: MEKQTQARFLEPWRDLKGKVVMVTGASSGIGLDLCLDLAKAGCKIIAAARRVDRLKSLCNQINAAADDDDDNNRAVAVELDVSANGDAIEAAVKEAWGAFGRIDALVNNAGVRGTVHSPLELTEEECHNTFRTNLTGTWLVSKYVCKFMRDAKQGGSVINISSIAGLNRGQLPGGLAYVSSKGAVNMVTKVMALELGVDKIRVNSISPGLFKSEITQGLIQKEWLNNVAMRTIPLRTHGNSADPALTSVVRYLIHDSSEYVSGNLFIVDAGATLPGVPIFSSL
Description: pull-down on amylose resin from mixed bacterial lysates, SDS-PAGE.

B1: PhBSα, tag-free (MBP removed from MBP-PhBSα by Factor Xa protease) (enzyme)
chain: MEKQTQARFLEPWRDLKGKVVMVTGASSGIGLDLCLDLAKAGCKIIAAARRVDRLKSLCNQINAAADDDDDNNRAVAVELDVSANGDAIEAAVKEAWGAFGRIDALVNNAGVRGTVHSPLELTEEECHNTFRTNLTGTWLVSKYVCKFMRDAKQGGSVINISSIAGLNRGQLPGGLAYVSSKGAVNMVTKVMALELGVDKIRVNSISPGLFKSEITQGLIQKEWLNNVAMRTIPLRTHGNSADPALTSVVRYLIHDSSEYVSGNLFIVDAGATLPGVPIFSSL
As for B1, in experiment [1], the binding result was “binds”.

B2: PhBSβ-His (C-terminal His-tagged beta subunit of Petunia hybrida benzaldehyde synthase) (enzyme)
chain: MENSGKKVLLTSNGDDICNNIAYHLAQRGCQLVLMGNESQLKSVAEMIKQSLGGSAAVEVVGLDMEEDREAAFEEAVDKAWKIFGKLDALVNCYSYEGKMQDPLQLIEEEFKKIVKINFMAGWYLMKCISKKMRDDKSGGSIVFLTSIIGAERGIYQGAAAYGSCLGGIQQLVRLAAIELGKHQIRVNGISRGLHLQDEYPKAVGLERAEKMTKEAAPLNRWLDVKKDLASTVIYLISDDSRYMTGTSIFVDGAQSLVRPRMRSYMHHHHHH
As to B2, the binding result in experiment [2] is “binds”.
